Results as given in PubChem BioAssay AID2685 (National Center for Advancing Translational Sciences (NCATS), 2010).
The list shows a part of the results. Further columns of the screen follow, without active or inactive calls. Most of these compounds were active or inconclusive in the main read-out, so they are no random draw. The note in brackets gives the kind of curve behind each potency; many fits are weak.

Experiment: qHTS Assay for Lipid Storage Modulators in Drosophila S3 Cells;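 on cell number change: cells counted by Cell Tracker Red CMTPX staining in the red channel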
Conditions: BODIPY lipid droplet fluorescence, 18-24 h; for cell number change: measured here: cell count max response, cells fed with added oleic acid
Method in brief: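 Laser-scanning cytometry quantifies lipid droplet accumulation (500–530 nm total intensity; droplet/cell object ratio) in oleic acid-fed (400 uM added) Drosophila S3 cells treated with a concentration series. 20 uM Triacsin C defined 100% inhibition.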

[1] = measured here: lipid fluorescence (Fed channel) AC50, cells fed with added oleic acid
[2] = measured here: cell number channel AC50, cells fed with added oleic acid

SMILES | cell number change [%] | AC50 [1] | AC50 [2]
CCNS(=O)(=O)c1ccc(NC(=O)c2ccccc2OCC)cc1 | 4.43 | 18.4 µM [rising, partial curve] | –
Cn1c(C=O)c(C#CC(C)(C)O)c2ccccc21 | -4.29 | 0.731 µM [falling, partial curve] | –
CCOC(=O)c1c(S(=O)(=O)NCc2ccc(C)o2)c(C)n(C)c1C | -6.42 | 29.1 µM [falling, single point] | –
O=C(NCc1cccnc1)C1CCN(S(=O)(=O)c2cccnc2)CC1 | 17 | – | 0.00461 µM [rising, full curve, poor fit]
CCOc1ccc(C(=O)COc2ccc(NC(C)=O)cc2)cc1 | -5.06 | – | 0.00517 µM [rising, full curve, poor fit]
OC1CCCN(C(=S)Nc2ccc(SC(F)F)cc2)C1 (stereo unspecified) | 16.8 | 8.2 µM [rising, partial curve, poor fit] | –
COc1cc(C(=O)OCC(=O)NC(N)=O)cc(CN2C(=O)c3ccccc3C2=O)c1OC | 20.1 | 0.651 µM [rising, full curve, poor fit] | –
COc1ccccc1NS(=O)(=O)c1cccc(C(=O)NCC(c2ccco2)N2CCCC2)c1 (stereo unspecified) | 2.95 | 5.17 µM [rising, partial curve, poor fit] | –
Nc1ncc(-c2cc3ccccc3oc2=O)s1 | -12.4 | 0.461 µM [rising, partial curve, poor fit] | –
OCCN1CCN(C(=S)Nc2ccc(SC(F)F)cc2)CC1 | 23.3 | – | 4.61 µM [rising, full curve, poor fit]
COc1ccccc1CNc1ccc(Br)cn1 | -30.6 | – | 16.4 µM [falling, single point]
Cc1cccc(NC(=O)/C(C#N)=C/c2cn(CC(=O)NCc3ccco3)c3ccccc23)c1 | 17.1 | 7.31 µM [rising, partial curve] | –
CC(O)CNc1nc2c(c(=O)n(C)c(=O)n2C)n1Cc1cccc(Br)c1 (stereo unspecified) | 46.7 | 18.4 µM [falling, single point] | 32.6 µM [rising, single point]
Cc1ccnc(NS(=O)(=O)c2ccc(NC(=O)C3CC=CCC3C(=O)O)cc2)n1 (stereo unspecified) | 18.9 | 6.51 µM [falling, single point] | –
CS(=O)(=O)CCC(C(=O)n1nnc2ccccc21)N1C(=O)c2ccccc2C1=O (stereo unspecified) | -11.5 | 3.66 µM [falling, full curve, poor fit] | –
CCOc1ccc(N=NC2C(=O)N(C(N)=S)N=C2C)cc1 (stereo unspecified) | – | 4.61 µM [falling, partial curve] | –
O=C(CN1C(=O)NC2(CCCC2)C1=O)OCCOc1ccccc1 | 19.8 | – | 3.26 µM [rising, single point]
Cc1onc(-c2ccccc2)c1C(=O)Nc1ccc(S(=O)(=O)N2CCCCC2)cc1 | -6.42 | 32.6 µM [falling, single point] | –
COc1cc(C(=O)Nc2ccc(C(=O)c3cccs3)cc2)cc(OC)c1OC | -5.52 | – | –
COc1ccccc1N=C1NC(=O)/C(=C/c2ccc(N(C)C)cc2)S1 | – | 6.51 µM [falling, partial curve] | –
CC(C)C(=O)Nc1cccc(-c2nc3ccccc3o2)c1 | -46.9 | 0.731 µM [rising, full curve, poor fit] | 10.3 µM [falling, partial curve, poor fit]

SMILES | cell number change [%] | AC50 [1] | AC50 [2]
COC(=O)c1c(C)[nH]c(C(=O)C(C)OC(=O)C2=NNC(=O)CC2)c1C (stereo unspecified) | 9.45 | – | –
CCCn1c2ccccc2c2cnn(CC(=O)NCCOC)c(=O)c21 | 24.3 | – | –
Cc1nn(C)c(C)c1/C=C1/SC(=S)NC1=O | – | 3.26 µM [rising, single point] | –
CC(=O)c1ccc(OCC(O)CN2CCN(S(=O)(=O)c3c(C)c(C)cc(C)c3C)CC2)cc1 (stereo unspecified) | -19.8 | 6.51 µM [rising, single point] | –
Cc1ccc(Cn2c(SCC(C)C)nc3c2c(=O)[nH]c(=O)n3C)cc1 | -16.2 | 6.51 µM [falling, single point] | 4.11 µM [falling, single point]
O=C(NNC(=O)c1cc(-c2ccncc2)nc2ccccc12)Nc1ccc(F)cc1 | 19 | 3.55 µM [rising, partial curve] | –
CCCCn1nc(C(=O)Nc2cccc(C(=O)NC3CC3)c2)c2ccccc2c1=O | 26.6 | 25.9 µM [falling, single point] | –
O=C(NCc1cccs1)c1cc2ccccc2o1 | -9.03 | – | –
COCC(=O)OCC(=O)Nc1ccccc1-c1ccccc1 | – | – | 0.092 µM [falling, full curve, poor fit]
CC1CCN(S(=O)(=O)c2cn(CC(=O)N3CCN(C)CC3)c(=O)c3ccccc23)CC1 | -16.3 | 25.9 µM [rising, single point] | –
COC(=O)c1ccccc1NC(=O)c1ccc(NS(C)(=O)=O)cc1 | 110 | 1.84 µM [rising, full curve] | 2.06 µM [rising, full curve]
CCS(=O)(=O)N1Cc2ccccc2CC1C(=O)OCC(=O)N(C(C)C)C(C)C (stereo unspecified) | 14.9 | – | –
Cc1ccc([N+](=O)[O-])cc1NC(=O)C1CCCC1 | 8.2 | 0.651 µM [rising, single point] | –
CCOc1ccc(NCC(=O)Nc2ccc(Cl)cc2C)cc1 | -34.2 | 18.4 µM [falling, single point] | 20.6 µM [falling, single point]
C=CCN1C(=O)C2(OCCCO2)c2cccc(Cl)c21 | -14.2 | – | 0.0103 µM [falling, full curve, poor fit]
COc1ccccc1NS(=O)(=O)c1ccc2oc(SCC(C)=O)nc2c1 | 3.78 | – | –
O=C(CSc1nc(-c2ccco2)cc(C(F)(F)F)n1)NCCCN1CCOCC1 | -25.5 | 29.1 µM [falling, single point] | –
O=C(O)CN=CC1=C(O)CC(c2ccccc2)CC1=O (stereo unspecified) | 22.8 | 0.731 µM [rising, full curve, poor fit] | –
NC(=O)C1CC(=O)N(c2ccc(OCc3ccc(F)cc3)cc2)C1 (stereo unspecified) | 18.5 | 6.51 µM [rising, single point] | –
O=C(NNC(=O)c1ccccc1F)c1ccc(NS(=O)(=O)c2ccc(F)cc2)cc1 | -4.82 | – | –
COc1cc2nc(NCC3CCCO3)n3nc(-c4cccnc4)nc3c2cc1OC (stereo unspecified) | 6.17 | – | –

Four entries from above, set out differently.
SMILES	cell number change [%]	AC50 [1]	AC50 [2]
CC(C)C(=O)Nc1cccc(-c2nc3ccccc3o2)c1	-46.9	0.731 µM [rising, full curve, poor fit]	10.3 µM [falling, partial curve, poor fit]
COC(=O)c1c(C)[nH]c(C(=O)C(C)OC(=O)C2=NNC(=O)CC2)c1C (stereo unspecified)	9.45	–	–
CCCn1c2ccccc2c2cnn(CC(=O)NCCOC)c(=O)c21	24.3	–	–
Cc1nn(C)c(C)c1/C=C1/SC(=S)NC1=O	–	3.26 µM [rising, single point]	–

Continuation:

SMILES | cell number change [%] | AC50 [1] | AC50 [2]
Cc1ccc(C2=NN(S(=O)(=O)c3ccccc3)C(c3ccco3)C2)cc1 (stereo unspecified) | -9.33 | – | –
Cc1ccc(S(=O)(=O)NCC(=O)N/N=C/c2ccc(Cl)cc2Cl)cc1 | -36.2 | 29.1 µM [falling, single point] | 29.1 µM [falling, single point]
O=S(=O)(Nc1ccncc1)c1cc(Cl)c(Cl)cc1Cl | -14.4 | 6.51 µM [falling, single point] | –
O=C(Cn1nnc2ccccc2c1=O)NCCc1ccc(F)cc1 | -33.3 | – | 3.26 µM [rising, partial curve]
CCOC(=O)c1c(C)c(C(=O)NC2CCCCC2)c(C)n1CC | – | 3.66 µM [rising, single point] | –
N#Cc1ccc(-c2csc(NC(=O)C3CC3)n2)cc1 | 31.3 | – | 3.66 µM [rising, single point]
O=C(COC(=O)c1ccccc1NS(=O)(=O)c1cccs1)NC1CCCCC1 | -13.2 | 29.1 µM [falling, single point] | –
CN(C(=O)CN1C(=O)c2cc(Cl)c(Cl)cc2C1=O)C1CCS(=O)(=O)C1 (stereo unspecified) | 9.61 | 4.61 µM [rising, single point] | –
COc1cc(C(=O)NC(C)C2CC3CCC2C3)ccc1OC(F)F (stereo unspecified) | 27.6 | 1.03 µM [rising, full curve] | –
Nc1nc2nc(-c3ccc(OCc4ccccc4)cc3)cc(C(F)(F)F)n2n1 | – | 0.731 µM [rising, single point] | –
CC(=O)Nc1ccc(S(=O)(=O)N2CCSC2C(=O)O)cc1 (stereo unspecified) | 48.3 | 29.1 µM [rising, single point] | 29.1 µM [rising, single point]
Cc1ccc2oc(C(=O)Nc3nnc(C)s3)c(C)c2c1 | – | – | 2.59 µM [rising, single point]
O=C(Cn1nc(CNc2ccc(Br)cc2)[n+]2c1CCCCC2)c1ccc([N+](=O)[O-])cc1 | -21.8 | 29.1 µM [falling, single point] | –
COc1ccccc1CNC(=O)COC(=O)Cc1c[nH]c2ccccc12 | 6 | 2.06 µM [falling, partial curve] | –
O=C(CCc1nnc(CCCCc2ccccc2)o1)NCCC1CCCCO1 (stereo unspecified) | -17.9 | 29.1 µM [falling, single point] | –
Cc1nn(C)c(C)c1CN(C)S(=O)(=O)c1ccc2ccccc2c1 | -35 | 8.2 µM [falling, partial curve] | 10.3 µM [falling, partial curve, poor fit]
COC(=O)c1ccc(NS(=O)(=O)c2ccc3[nH]c(=O)oc3c2)cc1 | 4.78 | 18.4 µM [rising, partial curve] | –
CCN(CC)Cc1ccccc1CNC(=O)c1cccc(S(=O)(=O)Nc2ccc3c(c2)OCO3)c1 | -14.2 | – | –
COC(=O)CCS(=O)(=O)c1nc(-c2ccccc2)cc(C(F)(F)F)n1 | -87.8 | 3.26 µM [falling, partial curve] | 18.4 µM [falling, single point]
Cc1[nH]c(=O)[nH]c(=O)c1S(=O)(=O)N1CCC(C(=O)NC(C)c2ccccc2)CC1 (stereo unspecified) | -21.5 | 1.64 µM [falling, full curve, poor fit] | –
